Test results: article PMC12382147

Target: T1, Flag-TPIT (UniProt O60806)
T1 sequence: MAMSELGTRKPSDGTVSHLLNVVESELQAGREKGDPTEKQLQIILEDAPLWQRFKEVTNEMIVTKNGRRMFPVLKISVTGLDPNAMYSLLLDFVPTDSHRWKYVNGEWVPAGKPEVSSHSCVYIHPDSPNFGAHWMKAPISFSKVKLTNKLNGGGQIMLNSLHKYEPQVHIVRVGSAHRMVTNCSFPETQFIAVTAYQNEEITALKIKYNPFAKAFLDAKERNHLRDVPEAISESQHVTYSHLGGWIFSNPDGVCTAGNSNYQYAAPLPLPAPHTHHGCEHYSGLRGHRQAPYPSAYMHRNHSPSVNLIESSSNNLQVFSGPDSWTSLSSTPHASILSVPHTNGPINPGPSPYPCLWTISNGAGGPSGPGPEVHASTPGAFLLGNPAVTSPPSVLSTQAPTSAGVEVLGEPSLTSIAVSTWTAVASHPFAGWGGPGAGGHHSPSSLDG
Test: co-IP; exogenous ('external') Co-IP of Flag-TPIT with candidate ubiquitin ligases, Myc-tagged STUB1 or its truncated mutants; Triton X-100 lysis buffer, rProtein A/G beads, immunoblot; also with Irbesartan, Bosentan or Lumiracoxib (interaction enhanced)

binding: no binding
Substance: Myc-tagged STUB1 lacking the TPR domain (domain or fragment)

Results are given in words; binding and its absence hold for the method and conditions named. In cells and extracts the contact can be indirect. Tags and fused reporters may be left off the sequences shown.
